# No end group written: not given here.
# Legend:
# [1] = general procedure: Fmoc solid-phase peptide synthesis; Rinkamide resin; oxyma/N,N'-diisopropylcarbodiimide; HATU/DIPEA (CF labelling); settings: whole synthesis, LC-MS with UV chromatograms, 10-60% ACN in 15 min
# HeLa cells = experiment: Co‐localization studies (confocal microscopy, PCC and MOC); assay type: cell-based; settings: 30 min, n = 2
# Procedure: HeLa cells (30,000–40,000) were seeded into an 8‐well ibidi. For lysosomal and lipid droplet analysis, cells were treated for 30 min with 5 μM of CF‐labeled peptide combined with either 100 nM LysoTracker Red DND‐99 (Invitrogen) or a 1:1000 solution of distyryl Bodipy lipid droplet stain synthesized and kindly provided by Engelhardt et al.^[ [67] ^] diluted in serum‐free media under standard growth conditions. For Golgi analysis, cells were treated for 2 h with 5 μM CF‐labeled peptide under standard growth conditions. For the last 30 min of the incubation period, 1:100 BODIPY TR ceramide complexed to bovine serum albumine (BSA) (Invitrogen) was directly diluted into the well and incubated for the last 30 min together with the peptide. For ER staining, CellLight ER‐RFP, BacMam 2.0 (Invitrogen), was added to the cells and incubated overnight under standard growth conditions. The next day, the cells were treated for 2 h with 5 μM CF‐labeled peptides as described earlier. After the peptide and stain incubation, cells were washed three to four times with serum‐free medium. Finally, complete medium was added, and cells were imaged on the Ultra‐View VoX Spinning Disk Confocal Microscope (Perkin Elmer) on a Plan‐Apo Tirf 60X oil objective (NA 1.49, Nikon) at 37 °C and 5% CO2. Images were cropped and processed using Fiji. Pearson and Manders’ Coefficients were calculated using the JaCoP analysis tool.^[ [68] ^] For Golgi analysis, no PCC or MOC was determined as the unedited images contained a strong background signal.
# [2] = 5 μM CF‐DC‐2, LysoTracker Red DND‐99, mean ± SD of ≥37 cells
# [3] = 5 μM CF‐DC‐2, distyryl Bodipy lipid droplet stain, mean ± SD of ≥37 cells
substance,measurement,setting,value
GLRKRLRKFRNKRRDHHCRL-NH2,purity (crude or final not stated),[1],98%
GLRKRLRKFRNK-NH2,purity (crude or final not stated),[1],98%
GLRKRLRKFRNKRFDHHCVW-NH2,purity (crude or final not stated),[1],92%
GLRKRLRKFRNKDFDHHCKW-NH2,purity (crude or final not stated),[1],92%
CF-GLRKRLRKFRNKKMDHHCPW-NH2,crude purity (method not given),[1],87%
GLRKRLRKFRNKKMDHHCPW-NH2,purity (crude or final not stated),[1],93%
CF-GLRKRLRKFRNKRHDHHCFF-NH2,crude purity (method not given),[1],98%
CF-GLRKRLRKFRNKRMDHHCPW-NH2,final purity (method not given),[1],98%
CF-GLRKRLRKFRNKRFDHHCVW-NH2,crude purity (method not given),[1],96%
GLRKRLRKFRNKRMDHHCPW-NH2,purity (crude or final not stated),[1],95%
CF-GLRKRLRKFRNKRRDHHCRL-NH2,crude purity (method not given),[1],96%
CF-GLRKRLRKFRNKKMDHHAPW-NH2,crude purity (method not given),[1],87%
GLRKRLRKFRNKRFDHHCPW-NH2,purity (crude or final not stated),[1],96%
GLRKRLRKFRNKEFDHHCPW-NH2,purity (crude or final not stated),[1],93%
CF-GLRKRLRKFRNKDFDHHCKW-NH2,final purity (method not given),[1],98%
GLRKRLRKFRNKKMDHHAPW-NH2,purity (crude or final not stated),[1],97%
GLRKRLRKFRNKGFDHHCKW-NH2,purity (crude or final not stated),[1],93%
GLRKRLRKFRNKDFDHHCPW-NH2,purity (crude or final not stated),[1],94%
"GLRKRLRKFRNKKMDHHCPW-NH2 [DC‐2, CPP sC18* fused to the DHHC motif derived from ZDHHC2/3/6/7/15/16/20]","Mander's overlap coefficient (MOC), lysosomes",HeLa cells; [2],0.26 ± 0.14
same,"Pearson correlation coefficient (PCC), lysosomes",HeLa cells; [2],0.48 ± 0.14
same,"Mander's overlap coefficient (MOC), lipid droplets",HeLa cells; [3],0.05 ± 0.05
same,"Pearson correlation coefficient (PCC), lipid droplets",HeLa cells; [3],0.19 ± 0.08
CF-GLRKRLRKFRNK-NH2,final purity (method not given),[1],98%
CF-GLRKRLRKFRNKRYDQHCLW-NH2,final purity (method not given),[1],98%
CF-GLRKRLRKFRNKEFDHHCPW-NH2,final purity (method not given),[1],95%
CF-GLRKRLRKFRNKGFDHHCKW-NH2,crude purity (method not given),[1],87%
GLRKRLRKFRNKRHDHHCFF-NH2,purity (crude or final not stated),[1],94%
GLRKRLRKFRNKKFDHHCPW-NH2,purity (crude or final not stated),[1],96%
CF-GLRKRLRKFRNKRYDHHCPW-NH2,crude purity (method not given),[1],91%
CF-GLRKRLRKFRNKDFDHHCPW-NH2,crude purity (method not given),[1],93%
CF-GLRKRLRKFRNKKFDHHCPW-NH2,crude purity (method not given),[1],91%
GLRKRLRKFRNKRYDQHCLW-NH2,purity (crude or final not stated),[1],94%
GLRKRLRKFRNKRMDHHCVW-NH2,purity (crude or final not stated),[1],93%
CF-GLRKRLRKFRNKRMDHHCVW-NH2,final purity (method not given),[1],95%
CF-GLRKRLRKFRNKRFDHHCPW-NH2,final purity (method not given),[1],96%
GLRKRLRKFRNKRYDHHCPW-NH2,purity (crude or final not stated),[1],92%

# Source: PMC12117998 (Chembiochem, 2025)
